Assay: Elimination of endocrine disruptors and toxic agents from municipal wastewater by the method with injection of ozone
Conditions: PAC (Norit) 10 ppm, FeCl3 4-5 mg/L as Fe, ozone 1 to 2 mg/l; for Concentration in treated water: 65 samples over six months

Structure (SMILES) | Percentage of elimination | Concentration in treated water
CC(C)NCC(O)COc1ccc(CC(N)=O)cc1 (centres unmarked) [Atenolol] | 82% | –
c1ccc2[nH]nnc2c1 [Benzotriazole] | 97% | 0.301 µg/L
NC(=O)N1c2ccccc2C=Cc2ccccc21 [Carbamazepine] | 99% | 0.014 µg/L
O=C(O)Cc1ccccc1Nc1c(Cl)cccc1Cl [Diclofenac] | 97% | 0.034 µg/L
NS(=O)(=O)c1cc2c(cc1Cl)NCNS2(=O)=O [Hydochlorothiazide] | 95% | 0.146 µg/L
Cc1cc(NS(=O)(=O)c2ccc(N)cc2)no1 [Sulfamethaxole] | 88% | 0.03 µg/L
